Results: publication PMC7819943, “Rice protein-binding microarrays: a tool to detect cis-acting elements near promoter regions in rice”
This is one part of the list.

Target: T1, OsSMF1 (Oryza sativa, UniProt Q6ZLB0 1-436)
T1 sequence: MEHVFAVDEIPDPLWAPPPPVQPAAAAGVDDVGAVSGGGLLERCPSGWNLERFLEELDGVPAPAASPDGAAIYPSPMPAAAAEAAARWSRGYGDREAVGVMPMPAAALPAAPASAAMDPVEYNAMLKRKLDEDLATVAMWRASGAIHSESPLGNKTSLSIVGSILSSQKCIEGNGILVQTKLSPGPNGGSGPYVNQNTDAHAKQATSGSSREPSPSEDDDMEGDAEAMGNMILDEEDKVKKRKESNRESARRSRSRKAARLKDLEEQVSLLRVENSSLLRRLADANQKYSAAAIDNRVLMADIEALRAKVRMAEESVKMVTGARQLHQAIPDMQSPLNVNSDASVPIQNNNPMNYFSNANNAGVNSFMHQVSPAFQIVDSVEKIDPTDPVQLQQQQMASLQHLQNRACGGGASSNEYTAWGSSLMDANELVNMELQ
Experiment: protein-binding microarray (RPBM); PBS, 2% BSA, 51.3 ng/ul salmon testes DNA, 50 uM zinc acetate, 200 nM TF, 25 C, 1 h; high values mean tight binding
Conditions: protein: recombinant; tags: N-terminal polyhistidine and DsRed monomer fusion (pET32a); chain copies: 2; label: CyDye5-dUTP incorporated in the synthesized complementary strand; 3' TTTTT single-stranded linker to array surface; dsDNA, one strand shown
How it was run: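 For the binding signal, per-feature fluorescence intensity was read in arbitrary units on an Axon 4000B scanner. Before scanning, a 2% BSA-blocked custom Agilent array made double-stranded with Cy5-dUTP was washed after 1 h at 25 °C with 200 nM protein and 50 µM zinc acetate. The proteins were Ni–NTA-purified transcription factors with N-terminal polyhistidine and DsRed fusions, expressed in E. coli BL21-CodonPlus.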

Sequence	binding signal
GCGTGCGCGCTACTTATTACTGAGCTGGCGCGCCTAGGCACGGAGTCACCTAGTGCAG	3950 fluorescence intensity (a.u.)
GACGCGCGGTGGGCGCACATCGTGTACGCGTTGTTGGTGCCGGAGTCACCTAGTGCAG	3260 fluorescence intensity (a.u.)
ACTCGCCACTTCTCGGTTGTCACGCCTCTCTTTCGTACCGCGGAGTCACCTAGTGCAG	3540 fluorescence intensity (a.u.)
CAACAGTTAAACTGTCTGTTCCTGACAGGTCATCTCCTGACGGAGTCACCTAGTGCAG	6070 fluorescence intensity (a.u.)
GCCAGGCACGCGAAGTCGCCACGCGGAGACACACGCGGACCGGAGTCACCTAGTGCAG	5310 fluorescence intensity (a.u.)
GGAGGCGGCCGCGGCCGCGGCCGCCATGGCGAGCTGGGTGCGGAGTCACCTAGTGCAG	3400 fluorescence intensity (a.u.)
CCTTTCGTTGTGACACGACACGTTGATTATTGCGATCGAACGGAGTCACCTAGTGCAG	3740 fluorescence intensity (a.u.)
CTCACTGACGTAGGTTTATTGTACCTATTCTAATTAAGGCCGGAGTCACCTAGTGCAG	39400 fluorescence intensity (a.u.)
GGTCCATCCGCTGTTCCTGCTAGTCATATAGGTGACTCGGCGGAGTCACCTAGTGCAG	4150 fluorescence intensity (a.u.)
TTGACAATCTGAAGGCAACCTCTTCATATCTTCTTTCCAACGGAGTCACCTAGTGCAG	3590 fluorescence intensity (a.u.)
CGGCGGCTACGTGCTGACCCAGGAGGTGATGGACAGCATGCGGAGTCACCTAGTGCAG	3390 fluorescence intensity (a.u.)
ATGAACAGTAGTAGTGACGTTAGGCAGGAGAGGGTGAGGTCGGAGTCACCTAGTGCAG	3670 fluorescence intensity (a.u.)
CGGCGGCGGCGTCATGTCCTTTGCAATCAGCGGACAGTGGCGGAGTCACCTAGTGCAG	3610 fluorescence intensity (a.u.)
GGACAGGCTGATGTCACCGCCGCCGCCGCCGCCGAGCAAGCGGAGTCACCTAGTGCAG	7850 fluorescence intensity (a.u.)
ACCGTAGCCCACCTGTCAGTGACACAGCCCCACTCCCACCCGGAGTCACCTAGTGCAG	6310 fluorescence intensity (a.u.)
GGAGGCCGGAGCAGTTGGTCGCCACCGTCACGCGCGTTCCCGGAGTCACCTAGTGCAG	4240 fluorescence intensity (a.u.)
AAATTAACCCTTCACACACGTAAAATGAAGTAATGGATTACGGAGTCACCTAGTGCAG	3680 fluorescence intensity (a.u.)
CATCCACAGCCACATCCACATCCACCGAGCAGGAATCCAACGGAGTCACCTAGTGCAG	3700 fluorescence intensity (a.u.)
GGAAGGAGAGGGGAAGGGAGGAGCAGGTGGCGACGGTGCGCGGAGTCACCTAGTGCAG	3910 fluorescence intensity (a.u.)
TGTACGAGTTGGATTTTAAGTTCGTTTGCTTTTGAAAATACGGAGTCACCTAGTGCAG	3390 fluorescence intensity (a.u.)
TCCCGCTGTTTAGCACTAAGCACCAAACGAAACCCAAGAACGGAGTCACCTAGTGCAG	28500 fluorescence intensity (a.u.)

Sequence	binding signal
AATGAGTGTGTCCGCCCCTGGCCTGACACGATGGGTAATTCGGAGTCACCTAGTGCAG	3500 fluorescence intensity (a.u.)
CCATCAACGCCCTCTCCGTCCTCCTCGCCGCCGCCATCGCCGGAGTCACCTAGTGCAG	4300 fluorescence intensity (a.u.)
CGCACCGGGTCCAGTAGACCGCAAAACCCACACCCCATCGCGGAGTCACCTAGTGCAG	5980 fluorescence intensity (a.u.)
TTCTCATTTTATTTAATTTAAAAGTAATTTATTACATGTTCGGAGTCACCTAGTGCAG	19000 fluorescence intensity (a.u.)
AGGGGATCACAGACTCACAGTGACGTGCTCCTGATGCAAACGGAGTCACCTAGTGCAG	4050 fluorescence intensity (a.u.)
GTCGTGTCGGCTGCCGATTACACTATCGGCAGTGCAGCCGCGGAGTCACCTAGTGCAG	4270 fluorescence intensity (a.u.)
ATAGTATGATACAATATGACGTCACAACAAATTGGCATTGCGGAGTCACCTAGTGCAG	16900 fluorescence intensity (a.u.)
CGTCCGTGAGCACTGCGGCGAGCATCACCAGGATGAGGCCCGGAGTCACCTAGTGCAG	4480 fluorescence intensity (a.u.)
GGTGGTTTGACTTACCTGTCATGCCGCCGTTTTGGCCATTCGGAGTCACCTAGTGCAG	4170 fluorescence intensity (a.u.)
GGTTTAGGCTGCTCCACAACTCTACTTCAAAACTCAACTCCGGAGTCACCTAGTGCAG	24700 fluorescence intensity (a.u.)
AGTCAATTCGGTCACCAAGACACGTGTACTACGCGCCGCACGGAGTCACCTAGTGCAG	8870 fluorescence intensity (a.u.)
ATGTGGATATGTCACGTCATCCTCACATGATCCCCATTATCGGAGTCACCTAGTGCAG	14900 fluorescence intensity (a.u.)
TGGCCCAACACATCAACGTTACATCACGGGCTTTAACGTTCGGAGTCACCTAGTGCAG	3290 fluorescence intensity (a.u.)
TAAACCATAATCACATTGGGCAAAACGCATAGTCGAGTCACGGAGTCACCTAGTGCAG	4540 fluorescence intensity (a.u.)
TCGTTTTGCCACCGTGTATTCTACTCAACTCTCTACTGCTCGGAGTCACCTAGTGCAG	5200 fluorescence intensity (a.u.)
CCGCTTCACCTGGTCGATGACGTACCACACCTTGAGCCTGCGGAGTCACCTAGTGCAG	5710 fluorescence intensity (a.u.)
TTTATCTTCTATATTATATTGAAATCCAAATCATCCAGTTCGGAGTCACCTAGTGCAG	3220 fluorescence intensity (a.u.)
CAGGGTGGCAGGAGAGGTAGGGGCTTGCTATGGCAGTCAGCGGAGTCACCTAGTGCAG	3250 fluorescence intensity (a.u.)
ACACTAACTGCCGAGATGTCGATCCCAATTCCACGTGTGGCGGAGTCACCTAGTGCAG	8710 fluorescence intensity (a.u.)
CCGCTACCATCCACGTCAGCACGACGCCATCCATAATCGGCGGAGTCACCTAGTGCAG	22900 fluorescence intensity (a.u.)
ATCCCGTAGATCTCGTCATCTACACCACGCTATTCGTATCCGGAGTCACCTAGTGCAG	4110 fluorescence intensity (a.u.)

Part of the list above, bar-delimited:
Sequence | binding signal
AGGGGATCACAGACTCACAGTGACGTGCTCCTGATGCAAACGGAGTCACCTAGTGCAG | 4050 fluorescence intensity (a.u.)
GTCGTGTCGGCTGCCGATTACACTATCGGCAGTGCAGCCGCGGAGTCACCTAGTGCAG | 4270 fluorescence intensity (a.u.)
